The other results are listed elsewhere or left out.
compound: CNC(=O)C1=CC=CC=C1NC2=NC(=NC=C2Cl)NC3=C(C=C(C=C3)N4CCOCC4)OC; assay: log2 fold change, soluble protein after heating vs DMSO (PISA); higher = thermal stabilisation; K562 cells, 10 uM, 30 min; active = over 0.2 and 3.5 SD of the protein, either way, in both replicates (recomputed)
How it was run: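 K562 cells at 2×10^6 cells/mL were treated with 10 μM compound for 30 min. Aliquots were heated for 3 min across 48°C-58°C, pooled, and extracted in PBS with 0.5% NP-40 at 4°C; soluble protein was the supernatant after 21,000xg for 90 min. Soluble protein was quantified by TMTpro 16plex LC-MS/MS with channel sums equalised, and reported as log2 fold change in thermal stability against DMSO controls, with values from duplicates.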

The chains behind the UniProt entries cited, without tags or fusion partners. Where a name states a change or a piece, a line headed by the entry shows the natural chain unless it says otherwise.
UniProt Q9H0X4: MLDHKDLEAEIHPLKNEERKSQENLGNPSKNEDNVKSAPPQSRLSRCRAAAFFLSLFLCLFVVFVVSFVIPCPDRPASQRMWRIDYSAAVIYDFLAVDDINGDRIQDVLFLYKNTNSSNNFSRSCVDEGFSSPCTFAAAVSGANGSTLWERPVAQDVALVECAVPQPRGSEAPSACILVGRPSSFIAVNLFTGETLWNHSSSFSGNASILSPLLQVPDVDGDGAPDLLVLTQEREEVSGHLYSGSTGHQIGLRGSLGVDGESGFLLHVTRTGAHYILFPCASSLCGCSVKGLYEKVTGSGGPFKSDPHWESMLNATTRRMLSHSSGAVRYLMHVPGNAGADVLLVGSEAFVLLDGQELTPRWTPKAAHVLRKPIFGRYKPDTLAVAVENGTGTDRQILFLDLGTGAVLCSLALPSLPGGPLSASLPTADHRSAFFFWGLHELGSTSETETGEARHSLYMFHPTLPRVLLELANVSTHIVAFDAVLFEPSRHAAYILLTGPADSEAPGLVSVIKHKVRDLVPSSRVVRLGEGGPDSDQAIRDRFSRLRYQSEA
UniProt Q9NXK8: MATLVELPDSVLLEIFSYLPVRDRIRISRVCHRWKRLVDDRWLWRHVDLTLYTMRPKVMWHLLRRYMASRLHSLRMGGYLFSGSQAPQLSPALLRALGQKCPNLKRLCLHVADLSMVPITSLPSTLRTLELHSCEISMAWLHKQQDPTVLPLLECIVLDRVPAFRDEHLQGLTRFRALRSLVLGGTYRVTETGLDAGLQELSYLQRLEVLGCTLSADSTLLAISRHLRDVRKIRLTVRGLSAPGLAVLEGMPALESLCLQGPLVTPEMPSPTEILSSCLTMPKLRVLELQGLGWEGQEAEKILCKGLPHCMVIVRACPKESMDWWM
UniProt Q9UIM3: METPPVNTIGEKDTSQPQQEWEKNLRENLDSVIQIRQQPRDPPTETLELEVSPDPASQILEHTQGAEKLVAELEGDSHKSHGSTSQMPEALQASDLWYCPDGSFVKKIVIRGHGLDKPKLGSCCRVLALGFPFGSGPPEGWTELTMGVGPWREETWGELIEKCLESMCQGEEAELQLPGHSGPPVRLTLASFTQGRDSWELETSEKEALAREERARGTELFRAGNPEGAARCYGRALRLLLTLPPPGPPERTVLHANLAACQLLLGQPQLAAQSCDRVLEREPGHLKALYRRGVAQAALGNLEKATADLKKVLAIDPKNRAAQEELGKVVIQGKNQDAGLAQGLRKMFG
UniProt Q8IW50: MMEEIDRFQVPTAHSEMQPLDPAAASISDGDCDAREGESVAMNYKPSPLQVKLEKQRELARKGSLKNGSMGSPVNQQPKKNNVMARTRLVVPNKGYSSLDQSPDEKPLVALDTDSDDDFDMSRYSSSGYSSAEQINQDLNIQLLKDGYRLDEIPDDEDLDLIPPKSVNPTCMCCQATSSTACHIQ
UniProt Q8NB91: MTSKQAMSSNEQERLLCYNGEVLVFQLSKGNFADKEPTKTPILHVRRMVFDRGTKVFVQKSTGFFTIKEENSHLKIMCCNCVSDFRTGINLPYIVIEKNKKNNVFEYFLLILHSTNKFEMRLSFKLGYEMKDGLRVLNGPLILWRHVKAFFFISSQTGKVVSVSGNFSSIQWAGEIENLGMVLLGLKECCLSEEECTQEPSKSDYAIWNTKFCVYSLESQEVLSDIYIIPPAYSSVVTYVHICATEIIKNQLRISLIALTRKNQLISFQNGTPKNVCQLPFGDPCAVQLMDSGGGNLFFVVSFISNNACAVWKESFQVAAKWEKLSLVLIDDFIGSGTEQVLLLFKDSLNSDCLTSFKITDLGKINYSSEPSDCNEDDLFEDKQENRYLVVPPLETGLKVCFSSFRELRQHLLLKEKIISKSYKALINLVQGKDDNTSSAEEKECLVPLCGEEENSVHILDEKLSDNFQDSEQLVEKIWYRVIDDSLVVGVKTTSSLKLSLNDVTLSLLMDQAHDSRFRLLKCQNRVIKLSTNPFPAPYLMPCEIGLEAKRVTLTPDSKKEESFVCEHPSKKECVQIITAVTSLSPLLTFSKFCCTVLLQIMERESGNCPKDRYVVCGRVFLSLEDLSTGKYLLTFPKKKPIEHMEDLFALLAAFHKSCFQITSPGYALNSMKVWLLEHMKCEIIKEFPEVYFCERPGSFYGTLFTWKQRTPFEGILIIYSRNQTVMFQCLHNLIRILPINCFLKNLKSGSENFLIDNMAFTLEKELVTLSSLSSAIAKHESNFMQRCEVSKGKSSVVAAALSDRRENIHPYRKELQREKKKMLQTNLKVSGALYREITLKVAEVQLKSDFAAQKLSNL
UniProt Q13643: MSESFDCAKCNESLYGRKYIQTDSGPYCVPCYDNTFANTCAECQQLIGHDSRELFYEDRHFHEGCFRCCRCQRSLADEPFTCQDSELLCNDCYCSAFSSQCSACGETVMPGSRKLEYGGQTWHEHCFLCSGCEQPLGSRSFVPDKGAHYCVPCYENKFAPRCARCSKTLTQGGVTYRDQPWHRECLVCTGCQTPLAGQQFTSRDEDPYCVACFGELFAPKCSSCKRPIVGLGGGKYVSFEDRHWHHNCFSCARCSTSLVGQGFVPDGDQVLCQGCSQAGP
UniProt Q8N3X1: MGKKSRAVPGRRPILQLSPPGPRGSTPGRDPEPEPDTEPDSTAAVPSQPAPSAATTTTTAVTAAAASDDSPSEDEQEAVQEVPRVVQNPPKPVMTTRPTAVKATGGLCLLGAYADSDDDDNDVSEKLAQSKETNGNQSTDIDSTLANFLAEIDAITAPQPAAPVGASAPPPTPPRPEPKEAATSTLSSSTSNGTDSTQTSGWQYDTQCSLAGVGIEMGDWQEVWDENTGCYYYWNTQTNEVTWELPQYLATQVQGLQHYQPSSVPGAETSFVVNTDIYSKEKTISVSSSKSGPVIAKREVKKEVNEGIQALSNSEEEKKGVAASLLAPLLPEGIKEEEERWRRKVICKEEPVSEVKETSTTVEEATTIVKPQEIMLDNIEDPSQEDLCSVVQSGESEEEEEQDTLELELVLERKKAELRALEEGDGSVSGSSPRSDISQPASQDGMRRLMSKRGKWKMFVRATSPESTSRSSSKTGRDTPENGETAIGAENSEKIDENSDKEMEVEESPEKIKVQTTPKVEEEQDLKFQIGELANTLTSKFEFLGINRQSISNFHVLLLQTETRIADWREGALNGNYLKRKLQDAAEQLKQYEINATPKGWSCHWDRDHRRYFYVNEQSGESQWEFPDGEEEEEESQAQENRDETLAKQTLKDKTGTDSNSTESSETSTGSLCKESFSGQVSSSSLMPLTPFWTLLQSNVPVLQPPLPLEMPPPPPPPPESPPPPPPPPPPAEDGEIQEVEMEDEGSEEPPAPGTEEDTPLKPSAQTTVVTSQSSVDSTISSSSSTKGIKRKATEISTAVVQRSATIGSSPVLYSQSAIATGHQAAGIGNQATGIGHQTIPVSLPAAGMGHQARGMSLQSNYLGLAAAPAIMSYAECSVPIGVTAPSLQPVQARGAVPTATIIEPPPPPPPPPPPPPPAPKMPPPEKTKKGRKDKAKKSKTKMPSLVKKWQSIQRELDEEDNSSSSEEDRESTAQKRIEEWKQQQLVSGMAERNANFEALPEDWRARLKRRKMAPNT
UniProt O95363: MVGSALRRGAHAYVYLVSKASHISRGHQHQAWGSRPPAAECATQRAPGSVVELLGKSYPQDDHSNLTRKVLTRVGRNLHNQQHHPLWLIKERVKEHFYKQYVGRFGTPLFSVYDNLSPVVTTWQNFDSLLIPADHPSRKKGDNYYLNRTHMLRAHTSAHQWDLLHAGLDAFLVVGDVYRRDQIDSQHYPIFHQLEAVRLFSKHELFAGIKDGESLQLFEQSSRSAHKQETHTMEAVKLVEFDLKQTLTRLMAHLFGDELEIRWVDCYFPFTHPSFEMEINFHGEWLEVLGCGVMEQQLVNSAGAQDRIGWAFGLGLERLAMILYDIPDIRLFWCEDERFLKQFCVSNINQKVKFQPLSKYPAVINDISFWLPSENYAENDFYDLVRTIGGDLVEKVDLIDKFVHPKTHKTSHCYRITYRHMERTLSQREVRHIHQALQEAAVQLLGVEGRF
UniProt P02751, whole entry, looked up: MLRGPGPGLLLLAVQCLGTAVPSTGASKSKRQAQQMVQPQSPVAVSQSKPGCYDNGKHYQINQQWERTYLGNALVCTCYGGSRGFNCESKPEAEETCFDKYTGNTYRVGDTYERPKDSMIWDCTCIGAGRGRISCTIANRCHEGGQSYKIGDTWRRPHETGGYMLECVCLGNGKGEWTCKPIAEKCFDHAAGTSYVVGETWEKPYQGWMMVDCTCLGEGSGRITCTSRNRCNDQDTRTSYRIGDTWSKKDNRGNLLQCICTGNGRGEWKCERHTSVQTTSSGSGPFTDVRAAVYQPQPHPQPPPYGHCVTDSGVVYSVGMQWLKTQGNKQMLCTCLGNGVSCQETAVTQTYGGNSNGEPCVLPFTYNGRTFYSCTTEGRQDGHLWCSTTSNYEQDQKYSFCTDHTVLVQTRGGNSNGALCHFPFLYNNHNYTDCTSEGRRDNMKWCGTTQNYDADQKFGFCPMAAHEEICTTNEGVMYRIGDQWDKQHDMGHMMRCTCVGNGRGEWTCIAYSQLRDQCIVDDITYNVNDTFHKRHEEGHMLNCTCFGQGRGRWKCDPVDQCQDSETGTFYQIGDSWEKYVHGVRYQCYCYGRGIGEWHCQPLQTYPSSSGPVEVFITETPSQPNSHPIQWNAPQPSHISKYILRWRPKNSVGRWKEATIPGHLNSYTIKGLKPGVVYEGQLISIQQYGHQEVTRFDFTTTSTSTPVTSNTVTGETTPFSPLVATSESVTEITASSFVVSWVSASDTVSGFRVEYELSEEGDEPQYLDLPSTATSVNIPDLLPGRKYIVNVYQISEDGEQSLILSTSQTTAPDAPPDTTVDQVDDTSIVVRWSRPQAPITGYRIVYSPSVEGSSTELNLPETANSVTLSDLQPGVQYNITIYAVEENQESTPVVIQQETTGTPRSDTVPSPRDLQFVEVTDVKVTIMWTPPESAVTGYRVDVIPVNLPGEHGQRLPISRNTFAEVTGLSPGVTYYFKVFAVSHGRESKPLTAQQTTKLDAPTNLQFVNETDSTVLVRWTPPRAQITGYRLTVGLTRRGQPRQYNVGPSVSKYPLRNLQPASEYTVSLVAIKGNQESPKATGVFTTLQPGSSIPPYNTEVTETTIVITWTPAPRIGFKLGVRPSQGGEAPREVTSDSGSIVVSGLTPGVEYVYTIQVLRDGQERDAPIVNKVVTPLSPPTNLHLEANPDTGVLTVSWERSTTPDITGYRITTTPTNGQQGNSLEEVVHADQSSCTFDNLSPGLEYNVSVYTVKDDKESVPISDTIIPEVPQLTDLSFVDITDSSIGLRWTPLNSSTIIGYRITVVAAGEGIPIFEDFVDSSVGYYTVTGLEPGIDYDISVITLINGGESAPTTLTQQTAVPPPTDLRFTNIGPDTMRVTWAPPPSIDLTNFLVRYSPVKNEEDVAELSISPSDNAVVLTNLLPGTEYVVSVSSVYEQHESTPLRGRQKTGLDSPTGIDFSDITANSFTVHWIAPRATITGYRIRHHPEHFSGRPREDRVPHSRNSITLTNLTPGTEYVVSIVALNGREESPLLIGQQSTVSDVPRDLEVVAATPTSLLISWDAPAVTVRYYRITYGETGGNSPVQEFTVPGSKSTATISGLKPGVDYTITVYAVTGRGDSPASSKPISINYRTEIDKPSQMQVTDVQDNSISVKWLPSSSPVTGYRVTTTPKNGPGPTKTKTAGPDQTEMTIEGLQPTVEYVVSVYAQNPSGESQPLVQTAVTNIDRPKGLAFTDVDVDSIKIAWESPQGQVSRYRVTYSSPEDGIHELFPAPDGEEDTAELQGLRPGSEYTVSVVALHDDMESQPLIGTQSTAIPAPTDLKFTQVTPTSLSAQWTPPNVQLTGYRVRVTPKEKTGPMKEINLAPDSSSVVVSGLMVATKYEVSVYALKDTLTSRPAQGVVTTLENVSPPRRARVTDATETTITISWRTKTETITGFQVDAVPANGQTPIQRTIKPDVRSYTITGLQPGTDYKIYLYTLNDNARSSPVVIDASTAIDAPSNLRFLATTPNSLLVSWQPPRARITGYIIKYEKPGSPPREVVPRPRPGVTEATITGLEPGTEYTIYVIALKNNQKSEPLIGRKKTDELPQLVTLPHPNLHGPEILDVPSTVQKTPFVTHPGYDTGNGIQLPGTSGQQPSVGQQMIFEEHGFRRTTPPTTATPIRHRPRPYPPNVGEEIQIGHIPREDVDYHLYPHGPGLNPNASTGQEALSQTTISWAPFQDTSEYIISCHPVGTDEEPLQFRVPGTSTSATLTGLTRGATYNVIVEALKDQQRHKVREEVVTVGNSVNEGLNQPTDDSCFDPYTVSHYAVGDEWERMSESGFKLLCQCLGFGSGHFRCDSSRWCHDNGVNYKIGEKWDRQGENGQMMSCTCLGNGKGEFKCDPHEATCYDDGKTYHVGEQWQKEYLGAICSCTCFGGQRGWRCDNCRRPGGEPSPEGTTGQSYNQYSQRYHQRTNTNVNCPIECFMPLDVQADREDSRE

log2 fold change, inactive:
FN3KRP (UniProt Q9HA64) -0.024
FCGR2A (UniProt P12318) -0.019
FKRP (UniProt Q9H9S5) -0.049
FDXR isoform 7 (UniProt P22570) -0.012
FIP1L1 (UniProt Q6UN15) -0.148
FAM234A (UniProt Q9H0X4) -0.058
FLNA (UniProt P21333) 0.106
FAM98A (UniProt Q8NCA5) 0.047
FLT4 (UniProt P35916) -0.124
FBXL12 (UniProt Q9NXK8) 0.045
FKBPL (UniProt Q9UIM3) -0.008
FDX1 (UniProt P10109) -0.043
FAM219A (UniProt Q8IW50) -0.074
FAM91A1 (UniProt Q658Y4) 0.059
FBXO30 (UniProt Q8TB52) -0.014
FBXO7 (UniProt Q9Y3I1) 0.012
FAM76B (UniProt Q5HYJ3) 0.028
FAM3A (UniProt P98173) 0.065
FANCB (UniProt Q8NB91) -0.009
FECH isoform 2 (UniProt P22830) 0.245
FHL3 (UniProt Q13643) 0.024
FKBP9 (UniProt O95302) 0.037
FAM49B (UniProt Q9NUQ9) 0.005
FASTKD2 (UniProt Q9NYY8) -0.034
FGF13 isoform 3 (UniProt Q92913) -0.022
FERMT3 (UniProt Q86UX7) 0.008
FBXO6 (UniProt Q9NRD1) 0.031
FBL (UniProt P22087) -0.012
FNBP4 isoform 2 (UniProt Q8N3X1) -0.036
FAR1 (UniProt Q8WVX9) -0.024
FBH1 isoform 2 (UniProt Q8NFZ0) -0.07
FARS2 (UniProt O95363) 0.075
FN1 isoform 1 (UniProt P02751) -0.071
FKBP4 (UniProt Q02790) 0.032
FKBP5 (UniProt Q13451) 0.028
FAT3 isoform 1 (UniProt Q8TDW7) 0.097
FAM210A (UniProt Q96ND0) -0.031
FIS1 (UniProt Q9Y3D6) -0.012
FBXW9 (UniProt Q5XUX1) 0.061

Reprinted at random: two records from the list, in no set order.
log2 fold change, inactive:
FCGR2A (UniProt P12318) -0.019
FAM76B (UniProt Q5HYJ3) 0.028

Reference: the supplement of paper PMC10849652
